Reference: PubChem BioAssay AID1508588 (Peter MacCallum Cancer Centre, 2020)

Assay: 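Which gene losses make BRAF-mutant melanoma cells more responsive to vemurafenib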 (primary screen)
Cell system: human WM266.4 melanoma cells (BRAF V600 mutant)
Reagents: siRNA pool against human genes, 40 nM
Time to read-out: 96 h from transfection to read-out
Challenge: vemurafenib 300 nM (about IC25), added 48 h after transfection, for 48 h; comparison arm got DMSO vehicle only
Measured: 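Cell gain (DAPI nuclei at end minus before drug, mean of two replicates) and medium lactate by absorbance per cell, both as ratio to non-targeting siRNA, also grouped into fold-change classes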
Direction: cell gain with vemurafenib: higher = more cell gain than with non-targeting siRNA; lactate per cell with vemurafenib: higher = more lactate made per cell
Call rule: 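a knock-down counts as enhancing when its fold-change classes with vehicle and with vemurafenib, taken together, show a stronger drug effect on cell gain or lactate per cell; exact class pairs not stated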
Meaning of the calls: active = enhances vemurafenib effect; inactive = no enhancement seen
In all, the deposit lists about 18,000 reagents; this is a part drawn at random. 790 of them (4.4%) were called active. 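Calls rest on a combination of fold-change classes in drug and vehicle arms, not all shown here.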

| target gene | cell gain with vemurafenib | lactate per cell with vemurafenib | Outcome |
| --- | --- | --- | --- |
| GIMAP7 | 0.38 | 0.96 | inactive |
| EIF3K | 0.17 | 1.07 | inactive |
| REG4 | 0.7 | 1.21 | inactive |
| SEC14L1 | 0.25 | 3.93 | inactive |
| USP9Y | 1.13 | 0.54 | inactive |
| GFRA1 | 0.59 | 0.64 | inactive |
| NANS | 0.16 | 1.64 | inactive |
| AGTR1 | 1.41 | 0.84 | inactive |
| PDHX | 0.68 | 0.55 | inactive |
| UBE4A | -0.07 | 2.66 | inactive |
| OR5M8 | 0.91 | 0.82 | inactive |
| NFATC3 | 1.16 | 0.4 | inactive |
| BDKRB1 | 1.07 | 0.84 | inactive |
| CCDC171 | 0.51 | 1.04 | inactive |
| MRPL52 | 0.92 | 0.95 | inactive |
| SIGLEC7 | 0.47 | 0.31 | inactive |
| GLT6D1 | 1.02 | 0.9 | inactive |
| PLD1 | 0.92 | 0.86 | inactive |
| EPHA10 | 0.19 | -0.02 | active |
| NXPE4 | 0.62 | 0.9 | inactive |
| PRODH | 0.39 | 0.6 | inactive |
| C8orf76 | 0.43 | 1.08 | inactive |
| OFD1 | 0.54 | 0.6 | inactive |
| WNK3 | 0.83 | 1.11 | inactive |

Active calls (from the list above):
| target gene | cell gain with vemurafenib | lactate per cell with vemurafenib | Outcome |
| --- | --- | --- | --- |
| EPHA10 | 0.19 | -0.02 | active |

The listing continues:
| target gene | cell gain with vemurafenib | lactate per cell with vemurafenib | Outcome |
| --- | --- | --- | --- |
| MYLK4 | 0.63 | 1.25 | inactive |
| ADAR | 0.95 | 1.33 | inactive |
| ZNF488 | 0 | 0 | inactive |
| CAP1 | 1.22 | 1.13 | inactive |
| CA4 | 0.47 | 1.23 | inactive |
| PIK3R4 | 0.85 | 0.64 | inactive |
| TTC23 | 0.51 | 1.45 | inactive |
| UPK3B | 0.48 | 1.52 | inactive |
| AKR7A2 | 0.74 | 0.74 | inactive |
| AQP6 | 1.04 | 0.68 | inactive |
| CDC37L1 | 0.81 | 0.93 | inactive |
| FASTKD2 | 0.35 | 1.68 | inactive |
| KCNH7 | 0.67 | 0.21 | inactive |
| WNT8B | 0.24 | 1.6 | inactive |
| PRR18 | 0.75 | 0.65 | inactive |
| ZDHHC17 | 0.83 | 0.81 | inactive |
| SCYL3 | 0.75 | 0.78 | inactive |
| API5 | 0.79 | 0.7 | inactive |
| XPO1 | 0.05 | 1.27 | inactive |
| TMCO1 | 0.79 | 0.66 | inactive |
| LRRC27 | 1.01 | 0.68 | inactive |
| PITRM1 | 0.87 | 0.61 | inactive |
| P3H1 | 0.78 | 0.38 | inactive |
| SCGB2A1 | 0.82 | 0.73 | inactive |
| RPS19BP1 | 0.74 | 0.63 | inactive |
| EEIG2 | 0.75 | 0.86 | inactive |
| ZBTB35 | 0.46 | 0.68 | inactive |
| PLGLB2 | 0.77 | 0.69 | inactive |
| MGARP | 1.16 | 0.66 | inactive |
| TMSB4XP8 | 1.17 | 0.64 | inactive |
| ARL5A | 0.92 | 0.53 | inactive |
| SAXO1 | 1.12 | 1.04 | inactive |
| ESYT2 | 0.73 | 0.9 | inactive |
